Source: PubChem BioAssay AID588579 (National Center for Advancing Translational Sciences (NCATS), 2011)
About 2,200 (0.55%) of roughly 400,000 compounds were called active. Only results without a clear call are listed here; the source files them as inconclusive. Calls come from the whole dose curve; as a rule, active = well fitted inhibition curve with a large enough effect; inconclusive = small, poorly fitted or top-dose-only effect, or another doubt; inactive = no such curve, though single readings can be large or run the other way.

Protein sequences, listed by entry. Tags and fused reporters are not part of them.
UniProt Q9UBT6, whole entry: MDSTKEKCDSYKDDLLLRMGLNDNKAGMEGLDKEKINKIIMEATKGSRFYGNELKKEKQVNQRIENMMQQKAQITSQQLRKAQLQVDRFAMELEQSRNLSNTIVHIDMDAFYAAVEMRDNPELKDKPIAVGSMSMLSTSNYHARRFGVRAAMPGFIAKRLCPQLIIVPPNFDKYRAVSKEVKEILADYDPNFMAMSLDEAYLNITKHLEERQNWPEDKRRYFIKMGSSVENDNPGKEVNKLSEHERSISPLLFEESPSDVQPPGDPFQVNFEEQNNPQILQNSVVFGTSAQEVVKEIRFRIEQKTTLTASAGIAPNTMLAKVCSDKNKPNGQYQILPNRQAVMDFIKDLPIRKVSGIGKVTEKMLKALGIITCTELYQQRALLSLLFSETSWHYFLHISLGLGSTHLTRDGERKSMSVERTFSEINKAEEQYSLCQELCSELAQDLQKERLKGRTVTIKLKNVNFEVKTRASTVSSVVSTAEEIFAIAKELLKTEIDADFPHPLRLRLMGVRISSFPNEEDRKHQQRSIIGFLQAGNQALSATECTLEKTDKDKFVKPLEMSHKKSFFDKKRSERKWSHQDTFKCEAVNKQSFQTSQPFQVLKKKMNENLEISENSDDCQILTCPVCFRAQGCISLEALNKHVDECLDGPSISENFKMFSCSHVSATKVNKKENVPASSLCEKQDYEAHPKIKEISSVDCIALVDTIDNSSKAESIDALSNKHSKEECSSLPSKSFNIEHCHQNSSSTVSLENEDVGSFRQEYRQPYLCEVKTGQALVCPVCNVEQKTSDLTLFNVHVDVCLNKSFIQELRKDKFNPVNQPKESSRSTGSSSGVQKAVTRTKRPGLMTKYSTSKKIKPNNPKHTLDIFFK

target: DNA polymerase kappa (Homo sapiens) (UniProt Q9UBT6); experiment: qHTS for Inhibitors of Polymerase Kappa; conditions: purified Pol kappa, fluorescent DNA synthesis assay, 10 min
Protocol: The processing and repair of DNA interstrand crosslinks (ICL) in eukaryotic cells are extremely complex, potentially involving multiple DNA repair and damage tolerance pathways, including homologous recombination, nucleotide excision repair, translesion synthesis (TLS), and cell cycle checkpoints.
To that end, in a collaboration between the Oregon Health & Science University and the NIH Chemical Genomics Center a 1536-well high-throughput screen was developed. This fluorescent screen was assayed against the NIH Molecular Libraries Small Molecule Repository (MLSMR) to discover inhibitors of Pol Kappa.
NIH Chemical Genomics Center [NCGC]
NIH Molecular Libraries Probe Centers Network [MLPCN]
Assay Submitter (PI): Stephen Lloyd, Oregon Health & Science University
Three microliters of reagents (buffer in column 3 and 4 as negative control and 10 nM Pol kappa in columns 1, 2, and 5-48) were dispensed into a 1536-well black solid-bottom plate. Compounds (23 nL) were transferred via Kalypsys pin tool equipped with 1536-pin array. The plates were then incubated for 15 min at room temperature, and 1 uL substrate (50 nM final concentration) were then added to start the reaction and kinetically read twice at 0 min and 10 min on the Viewlux reader
Potency is the fitted concentration of half-maximal effect.

Structure (SMILES)	Potency
COc1ccc(N)c([N+](=O)[O-])c1[N+](=O)[O-]	inconclusive: 79.4 µM
